# Screening data, single-dose tests

The filed quantity is “Percent Effect” (%).
How 0% and 100% were set is not recorded. Most values in the screen are low, and negative values occur.
This is an unselected part of the compounds tested.
Two or more numbers in one place are separate tests of the same structure; such repeats can differ widely.

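Whole-cell growth test on Mycobacterium tuberculosis, read after 4 days in a medium based on cholesterol and the lipid DPPC; the read-out is not stated. Concentration: 50 µM. The record gives no direction; compounds that gave an IC50 in retests scored well above the rest, so higher reads as more growth inhibition. About 69,000 compounds were tested under these conditions; 0.54% (about 370) showed 50% or more at least once.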

| Compound | effect |
|---|---|
| `CC(C)n1ncc2c1NC(=O)CC21C(=O)Nc2cc(Cl)cc(Cl)c21` (stereo not given) | -3.97% |
| `COc1cccc(CN2CCOC(c3cnccn3)C2)c1F` (stereo not given) | -15.94% |
| `COc1cc(Oc2cnc3ccccc3n2)ccc1CN1CCCC1` | 53.88% |
| `COc1cc(C(=O)N2CCCS2(=O)=O)ccc1C` | -25.83% |
| `CC(C)c1nnc2sc(CC3CCS(=O)(=O)C3)nn12` (stereo not given) | -4.315% |
| `COCCOc1ccc(NC(=O)N2CCCC2c2ccsc2)cn1` (stereo not given) | 23.7% |
| `CN1CCCC2(CCN(C(=O)Cc3cc4c(cc3Cl)OCCO4)C2)C1=O` (stereo not given) | 0.5562% |
| `CCc1ncc2c(n1)CN(CC1CCCCO1)CC2` (stereo not given) | 21.13% |
| `CC(C)S(=O)(=O)N1CCC(Cc2cccc(C(=O)O)c2)C1` (stereo not given) | -13.82% |
| `CCOC(=O)[C@@H]1[C@@H](OC)C(=O)N(C)C12CCN(C(=O)C(CC)CC)CC2` | -10.49% |
| `CCOc1ccc(N(C)Cc2nnc(C)o2)cc1` | -0.1349% |
| `Cn1c(CS(=O)(=O)Cc2cccc(Cl)c2)cc(=O)n(C)c1=O` | -4.542% & 11.37% |
| `COC(=O)[C@H](CCSC)NC(=O)Cn1ccc2c(Cl)cccc21` | -7.429% |
| `O=C(c1cn(Cc2ccccc2)c2ncccc12)N1CCOCC1` | -14.56% |
| `CNS(=O)(=O)c1ccc(CNC(=O)N(CC(C)C)C(C)C)cc1` | 0.6646% |
| `Cc1nc(NCc2nnc(C)n2C)c2c(CC(C)C)csc2n1` | -12.85% |
| `CC(C)CCN1CC2(CCCN(C(=O)NCc3cccs3)C2)CCC1=O` (stereo not given) | 9.942% |
| `CC(=O)N(CCC(=O)NC1(C#N)CCC1)Cc1ccccc1` | -18.19% |
| `COC(CNC(=O)C1CC1)c1ccc(C)s1` (stereo not given) | -25.4% |
| `N#Cc1ccc(CNC(=O)NCCNC(=O)C2CCCC2)c(F)c1` | -125.6% & -1.13% |
| `O=S(=O)(N(Cc1ccccn1)C1CC1)N1CCCC1c1ccco1` (stereo not given) | -2.799% |
| `CCc1ncc(CN(CCc2ccccc2)Cc2cccs2)cn1.O=C(O)CC(O)(CC(=O)O)C(=O)O` | 53.61% & 71.34% |
| `COc1ccc(F)c(CN2CCCC(c3cc(O)nc(C)n3)C2)c1` (stereo not given) | -6.76% |
| `COc1ccc(CCN2CCOC(Cn3nc(C)nc3C)C2)cc1` (stereo not given) | -5.112% & 1.552% |
| `CSCCc1n[nH]c2c1CN(S(=O)(=O)c1cn(C)c(C)n1)CC2` | 17.51% |
| `CC(C)c1csc(NC(=O)NC2CCCN(c3cnn(C)c3)C2)n1` (stereo not given) | -2.604% & -13.07% |
| `CN(C)c1ccc(C(=O)N(CCO)CC2CC2)c(F)c1` | -6.759% |
| `COc1ccc(CNCC2CCN(CCO)CC2)cc1F` | -1.906% |
| `Cc1cnn(CCNCc2cccnc2)c1` | -0.9724% |
| `O=C(O)C(F)(F)F.[H][C@@]12C[C@@H](Oc3ccc(C)cc3)CN1CCN(C(=O)c1cnccn1)C2` | 0.7362% |
| `COC(=O)CCCNC(=O)Nc1ccccc1OC` | -22.13% |
| `O=C(O)C(F)(F)F.O=S(=O)(C1CC1)N1CC[C@@H](OCC2CC2)[C@@H]1Cc1ccncc1` | -11.55% |
| `CC1CCN(CCNC(=O)C(C)n2cncn2)CC1` (stereo not given) | -7.166% |
| `CC(=O)N(Cc1noc(C2CC2)n1)C1CCN(Cc2nccn2C)C1` (stereo not given) | -3.79% |
| `CNC(=O)c1cc2c(nc1N(C)C)CCN(C)CC2.O=C(O)C(F)(F)F.O=C(O)C(F)(F)F` | -3.555% |
| `CC1CCCCN1C(=O)Cn1cnc(C#N)n1` (stereo not given) | -12.23% |
| `[H][C@]12CCN(C(=O)c3ccncc3F)[C@@]1([H])CC[C@H](COC)O2` | -1.585% |
| `CC(C)c1ncncc1C(=O)N1CCCN(Cc2ccccc2)CC1` | -24.42% |
| `CC1CCCCN1CCN(C)C(=O)c1cc(CN2CCC(O)CC2)on1` (stereo not given) | -3.74% |
| `Cc1ccc(N2CCC3(CCN(C(=O)N(C)C)CC3)CC2)nn1.O=C(O)C(F)(F)F` | 15.52% |
| `Cl.NC(=O)COc1ccc(CNCc2ccc(F)cc2F)cc1` | -0.0989% |
| `O=C(Nc1ccc(-c2csnn2)cc1)NC(CCO)C1CC1` (stereo not given) | -14.09% |
| `Cc1ccc(C(=O)Nc2cccc3c2C(=O)NC3)c(C)n1` | -4.152% |
| `CC(C)C[C@H]1CN(c2nc3c(cc2C(N)=O)CCC3)CC[C@@]1(C)O` | -1.359% |
| `CC1CCCCN1C(=O)c1nc2c(n1C(C)C)CCN(C)C2.O=C(O)C(F)(F)F` (stereo not given) | 19.45% |
| `Cc1noc(C)c1CN1CCN(C(C)c2nc(C3CC3)no2)CC1` (stereo not given) | 3.065% |
| `NC(=O)CC1CCN(CC(O)c2ccc(Br)cc2)CC1` (stereo not given) | 4.498% & -14.25% |
| `CS(=O)(=O)c1cncnc1C1CCCN(C(=O)Nc2ccccc2F)C1` (stereo not given) | -19.64% & 3.691% |
| `Cc1cnc2n(c1=O)C(CC(=O)NCc1cccs1)CS2` (stereo not given) | -2.023% |
| `O=C(O)C(F)(F)F.[H][C@@]12CCN(c3ncc(F)cn3)[C@]1([H])CC[C@@H](C(=O)N1CCC(C)CC1)O2` | 17% |
| `Cc1cc(N(C)CCCn2cccn2)nc(-c2cccnc2)n1` | -11.86% |
| `CCCN1CCN(C(=O)c2cccnc2-n2cncn2)CC1` | 16.91% |
| `COCC1CC2(CCN(Cc3ccc(OC)cc3)CC2)CN1C(C)C.O=C(O)C(F)(F)F.O=C(O)C(F)(F)F` (stereo not given) | -13.95% |
| `CN(C)CCC1CCCCN1Cc1cnc(-c2ccccn2)nc1` (stereo not given) | -3.294% |
| `CCOC(=O)CC(C)Nc1nc(C2CCCC2)nc2c1cnn2C` (stereo not given) | -8.737% |
| `[H][C@@]12CCN(C(=O)COC)C[C@@]1([H])O[C@@H](c1nnc(C3CC3)o1)C2` | 0.7103% |
| `Cc1ccc(CN(Cc2ccccn2)C(=O)[C@H]2CC[C@@H](N)C2)s1` | -3.414% |
| `COC(=O)c1ccoc1CN(C1CC1)C1CCS(=O)(=O)C1` (stereo not given) | 3.948% |
| `CCC1CN(c2cnn(-c3ccccc3)c(=O)c2Cl)CCO1` (stereo not given) | -23.29% |
| `Cc1nn(C)c2c(=O)n(CC(=O)NCCN3CCCCCC3)ccc12` | 4.534% |
| `O=C(O)c1ccc2c(c1)C1(CCCCC1)CN2C(=O)c1cccs1` | -11.3% |
| `COCCn1ccc(=O)c(OCC(=O)Nc2ccc(Br)cc2)c1C` | 10.54% |
| `O=C(CN1CCS(=O)(=O)CC1)NCc1cccc(Br)c1` | -16.08% |
| `CC(C)(C)CC(=O)NCC(=O)Nc1ccn(Cc2ccncc2)n1` | -26.75% |
| `COc1cncc(-n2ccnc2-c2ccc(C(=O)O)s2)c1` | -29.6% |
| `CCC(C)c1noc(C2CCN(C(=O)c3cccnc3)CC2)n1` (stereo not given) | -19.05% |
| `CCc1ccc(C(=O)N2CCCCC2Cn2cccn2)o1` (stereo not given) | 23.73% |
| `COCCSCC(=O)NCc1ccnc(N(C)C)c1` | -9.875% & 10.12% |
| `CC(C)Nc1ncnc2c1CCN(C(=O)[C@H]1CCCO1)CC2` | -3.904% & -11.53% |
| `CCCc1noc(C2CC(=O)N(CCN(C)C)C2)n1` (stereo not given) | -26.86% |
| `OCC1CCCCN1CCCNCc1cc(O)c2cc(F)ccc2n1` (stereo not given) | -29.79% |
| `CC(C)N1CCC(CC(=O)N2CCCCC2CCn2cccn2)CC1` (stereo not given) | -27.51% |
| `CCc1nc(CCn2ccnc2-c2nccn2C)no1` | -0.7813% |
| `CC1CN(CC(=O)NCc2ccccn2)CCN1Cc1nccn1C` (stereo not given) | -8.278% |
| `Cc1nn(C)c(C)c1C1CCCN1C(=O)CCCc1ccccn1` (stereo not given) | -10.19% |
| `Cc1cc(C(=O)NC2CCN(C(=O)Nc3cccnc3)CC2)c(C)o1` | 6.447% |
| `CCN(Cc1ccc(OC)c(F)c1)Cc1nc2c(cnn2C)c(=O)[nH]1` | -2.292% |
| `Cc1cnn(CCNCC(O)COc2c(Cl)cccc2Cl)c1` (stereo not given) | 4.631% |

Some entries from above, unchanged:

- CC(C)n1ncc2c1NC(=O)CC21C(=O)Nc2cc(Cl)cc(Cl)c21 (stereo not given) : -3.97%
- Cc1ccc(C(=O)Nc2cccc3c2C(=O)NC3)c(C)n1 : -4.152%
- CCc1ncc(CN(CCc2ccccc2)Cc2cccs2)cn1.O=C(O)CC(O)(CC(=O)O)C(=O)O : 53.61% & 71.34%
- [H][C@]12CCN(C(=O)c3ccncc3F)[C@@]1([H])CC[C@H](COC)O2 : -1.585%
- COC(=O)c1ccoc1CN(C1CC1)C1CCS(=O)(=O)C1 (stereo not given) : 3.948%
- Cc1nn(C)c(C)c1C1CCCN1C(=O)CCCc1ccccn1 (stereo not given) : -10.19%
- Cc1nc(NCc2nnc(C)n2C)c2c(CC(C)C)csc2n1 : -12.85%
- CCc1ccc(C(=O)N2CCCCC2Cn2cccn2)o1 (stereo not given) : 23.73%
- CC1CCCCN1C(=O)c1nc2c(n1C(C)C)CCN(C)C2.O=C(O)C(F)(F)F (stereo not given) : 19.45%

From ChEMBL document CHEMBL3988442, “University of Dundee, Small-Polar-MMV Screening Library” (2021).